Experimental data published in the supplement of paper PMC12819154, “High-throughput peptide-centric local stability assay extends protein–ligand identification to membrane proteins, tissues and bacteria” (Nature Structural & Molecular Biology, 2025).
The list shows a part of the results. Small differences around the control level are noise.

Sequences of proteins named here, by UniProt entry; tags and fusion partners are left off. A change or cut given only in a name is not applied to a line headed by its entry.
UniProt Q5T200: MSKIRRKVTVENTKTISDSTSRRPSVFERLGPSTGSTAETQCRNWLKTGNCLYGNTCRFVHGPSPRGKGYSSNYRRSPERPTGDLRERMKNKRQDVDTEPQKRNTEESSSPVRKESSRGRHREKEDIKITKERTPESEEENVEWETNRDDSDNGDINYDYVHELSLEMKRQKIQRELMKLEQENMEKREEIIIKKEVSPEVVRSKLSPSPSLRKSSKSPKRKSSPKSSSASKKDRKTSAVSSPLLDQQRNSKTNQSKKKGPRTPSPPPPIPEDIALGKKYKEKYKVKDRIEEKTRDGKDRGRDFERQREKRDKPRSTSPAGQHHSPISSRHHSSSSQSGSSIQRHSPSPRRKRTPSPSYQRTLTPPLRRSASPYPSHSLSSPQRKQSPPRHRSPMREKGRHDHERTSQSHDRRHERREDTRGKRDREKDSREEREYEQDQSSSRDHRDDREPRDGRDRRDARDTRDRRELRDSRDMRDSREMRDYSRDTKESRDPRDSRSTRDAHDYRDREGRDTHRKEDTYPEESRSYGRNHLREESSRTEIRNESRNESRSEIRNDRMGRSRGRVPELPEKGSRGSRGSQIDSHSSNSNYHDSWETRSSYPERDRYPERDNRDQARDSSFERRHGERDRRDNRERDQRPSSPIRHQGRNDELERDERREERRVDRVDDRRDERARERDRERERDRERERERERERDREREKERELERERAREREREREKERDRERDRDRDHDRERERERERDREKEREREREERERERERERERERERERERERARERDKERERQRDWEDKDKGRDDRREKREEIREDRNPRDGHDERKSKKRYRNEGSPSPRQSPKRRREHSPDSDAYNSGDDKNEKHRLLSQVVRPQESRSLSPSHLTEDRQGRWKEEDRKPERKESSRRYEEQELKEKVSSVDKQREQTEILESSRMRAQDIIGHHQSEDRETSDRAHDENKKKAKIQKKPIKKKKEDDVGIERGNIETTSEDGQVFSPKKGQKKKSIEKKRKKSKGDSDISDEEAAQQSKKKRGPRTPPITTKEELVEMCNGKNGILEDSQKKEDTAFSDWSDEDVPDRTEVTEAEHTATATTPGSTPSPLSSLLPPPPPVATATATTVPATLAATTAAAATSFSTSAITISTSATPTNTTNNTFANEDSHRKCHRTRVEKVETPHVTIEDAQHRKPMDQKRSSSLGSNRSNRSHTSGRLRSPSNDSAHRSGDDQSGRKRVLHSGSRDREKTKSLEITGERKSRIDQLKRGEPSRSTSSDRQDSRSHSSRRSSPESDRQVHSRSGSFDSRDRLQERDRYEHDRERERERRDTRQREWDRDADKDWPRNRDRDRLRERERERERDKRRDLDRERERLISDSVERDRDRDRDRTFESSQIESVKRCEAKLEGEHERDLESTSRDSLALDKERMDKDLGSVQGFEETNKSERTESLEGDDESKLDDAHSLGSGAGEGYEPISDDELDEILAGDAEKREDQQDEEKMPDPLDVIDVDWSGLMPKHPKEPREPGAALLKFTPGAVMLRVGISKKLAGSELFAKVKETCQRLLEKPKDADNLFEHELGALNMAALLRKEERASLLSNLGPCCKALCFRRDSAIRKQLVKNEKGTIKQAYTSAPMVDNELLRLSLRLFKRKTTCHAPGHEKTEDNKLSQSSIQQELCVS
UniProt Q5JTZ9, whole entry: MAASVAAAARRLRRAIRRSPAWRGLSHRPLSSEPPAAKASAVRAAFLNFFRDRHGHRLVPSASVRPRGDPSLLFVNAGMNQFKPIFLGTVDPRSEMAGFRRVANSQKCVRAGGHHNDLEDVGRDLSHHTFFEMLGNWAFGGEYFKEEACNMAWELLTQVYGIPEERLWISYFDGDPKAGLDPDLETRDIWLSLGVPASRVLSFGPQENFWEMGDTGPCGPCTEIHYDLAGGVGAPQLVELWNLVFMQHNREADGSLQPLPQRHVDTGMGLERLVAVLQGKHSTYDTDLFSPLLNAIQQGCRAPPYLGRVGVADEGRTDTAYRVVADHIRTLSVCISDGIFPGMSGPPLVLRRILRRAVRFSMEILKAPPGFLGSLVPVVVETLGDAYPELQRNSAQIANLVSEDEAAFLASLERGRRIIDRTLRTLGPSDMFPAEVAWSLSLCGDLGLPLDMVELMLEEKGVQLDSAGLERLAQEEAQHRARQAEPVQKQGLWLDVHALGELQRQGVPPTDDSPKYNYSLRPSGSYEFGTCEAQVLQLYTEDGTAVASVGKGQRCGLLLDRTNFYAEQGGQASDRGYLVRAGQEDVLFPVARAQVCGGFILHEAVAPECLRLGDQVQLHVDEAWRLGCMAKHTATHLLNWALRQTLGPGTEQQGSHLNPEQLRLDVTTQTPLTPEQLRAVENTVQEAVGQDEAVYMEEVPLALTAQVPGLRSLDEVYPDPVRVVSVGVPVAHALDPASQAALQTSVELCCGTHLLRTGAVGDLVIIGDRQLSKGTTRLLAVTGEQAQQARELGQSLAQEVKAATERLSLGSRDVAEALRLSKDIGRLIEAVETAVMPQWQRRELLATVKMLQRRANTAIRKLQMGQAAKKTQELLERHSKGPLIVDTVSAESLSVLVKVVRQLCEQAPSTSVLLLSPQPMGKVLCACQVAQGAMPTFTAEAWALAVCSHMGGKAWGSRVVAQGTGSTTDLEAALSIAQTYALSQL
UniProt Q5VUM1: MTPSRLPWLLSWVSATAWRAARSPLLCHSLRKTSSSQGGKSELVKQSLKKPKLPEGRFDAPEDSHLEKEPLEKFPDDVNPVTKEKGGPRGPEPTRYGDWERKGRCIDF
UniProt Q5JS54: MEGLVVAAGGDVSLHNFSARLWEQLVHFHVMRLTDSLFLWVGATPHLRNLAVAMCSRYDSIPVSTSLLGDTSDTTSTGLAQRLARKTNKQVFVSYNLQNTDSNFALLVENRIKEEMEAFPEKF
UniProt Q5TA45, whole entry: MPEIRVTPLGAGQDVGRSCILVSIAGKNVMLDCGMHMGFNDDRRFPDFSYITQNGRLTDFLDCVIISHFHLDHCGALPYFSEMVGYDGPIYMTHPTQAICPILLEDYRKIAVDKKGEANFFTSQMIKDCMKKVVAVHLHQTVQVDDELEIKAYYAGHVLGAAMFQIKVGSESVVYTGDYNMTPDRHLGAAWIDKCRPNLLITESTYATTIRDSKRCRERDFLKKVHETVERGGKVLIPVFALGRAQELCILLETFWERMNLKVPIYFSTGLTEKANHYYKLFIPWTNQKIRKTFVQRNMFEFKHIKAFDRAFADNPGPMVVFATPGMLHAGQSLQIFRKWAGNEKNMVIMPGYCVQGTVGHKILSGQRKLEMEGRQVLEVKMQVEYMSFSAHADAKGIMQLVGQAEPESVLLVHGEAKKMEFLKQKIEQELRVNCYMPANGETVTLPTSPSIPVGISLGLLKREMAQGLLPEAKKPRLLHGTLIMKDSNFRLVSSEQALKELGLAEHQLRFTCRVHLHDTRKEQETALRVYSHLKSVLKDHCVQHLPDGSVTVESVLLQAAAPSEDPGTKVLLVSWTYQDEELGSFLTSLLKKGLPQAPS
UniProt Q5VV42: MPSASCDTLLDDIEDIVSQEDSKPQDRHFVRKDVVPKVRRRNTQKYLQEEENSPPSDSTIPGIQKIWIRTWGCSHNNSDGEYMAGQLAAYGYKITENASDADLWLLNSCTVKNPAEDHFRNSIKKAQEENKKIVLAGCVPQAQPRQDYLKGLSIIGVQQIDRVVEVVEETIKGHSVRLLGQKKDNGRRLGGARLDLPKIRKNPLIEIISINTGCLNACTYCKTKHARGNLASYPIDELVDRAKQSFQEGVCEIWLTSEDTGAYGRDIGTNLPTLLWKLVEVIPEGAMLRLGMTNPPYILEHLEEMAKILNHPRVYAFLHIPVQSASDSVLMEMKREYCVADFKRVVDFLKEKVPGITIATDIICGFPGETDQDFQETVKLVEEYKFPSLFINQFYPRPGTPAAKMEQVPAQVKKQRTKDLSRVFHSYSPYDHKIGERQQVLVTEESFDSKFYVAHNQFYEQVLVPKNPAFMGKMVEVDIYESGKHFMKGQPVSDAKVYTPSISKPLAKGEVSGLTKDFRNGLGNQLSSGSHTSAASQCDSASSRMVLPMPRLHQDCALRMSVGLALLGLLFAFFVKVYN
UniProt Q5T160: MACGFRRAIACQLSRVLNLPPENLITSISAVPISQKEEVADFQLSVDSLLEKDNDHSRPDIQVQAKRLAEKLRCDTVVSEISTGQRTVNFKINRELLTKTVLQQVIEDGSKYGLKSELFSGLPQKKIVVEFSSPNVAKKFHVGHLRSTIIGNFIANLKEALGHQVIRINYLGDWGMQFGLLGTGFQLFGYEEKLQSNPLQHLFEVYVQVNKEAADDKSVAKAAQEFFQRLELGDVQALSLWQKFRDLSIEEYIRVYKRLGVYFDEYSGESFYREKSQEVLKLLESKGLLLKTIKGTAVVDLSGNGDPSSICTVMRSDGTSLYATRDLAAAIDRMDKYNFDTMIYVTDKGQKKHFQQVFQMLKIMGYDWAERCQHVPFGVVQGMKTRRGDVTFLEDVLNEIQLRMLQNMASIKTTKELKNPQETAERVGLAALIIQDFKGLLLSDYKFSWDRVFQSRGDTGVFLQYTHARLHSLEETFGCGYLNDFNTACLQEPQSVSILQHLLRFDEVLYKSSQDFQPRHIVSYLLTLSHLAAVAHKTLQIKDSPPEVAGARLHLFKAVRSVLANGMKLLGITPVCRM
UniProt Q53F19: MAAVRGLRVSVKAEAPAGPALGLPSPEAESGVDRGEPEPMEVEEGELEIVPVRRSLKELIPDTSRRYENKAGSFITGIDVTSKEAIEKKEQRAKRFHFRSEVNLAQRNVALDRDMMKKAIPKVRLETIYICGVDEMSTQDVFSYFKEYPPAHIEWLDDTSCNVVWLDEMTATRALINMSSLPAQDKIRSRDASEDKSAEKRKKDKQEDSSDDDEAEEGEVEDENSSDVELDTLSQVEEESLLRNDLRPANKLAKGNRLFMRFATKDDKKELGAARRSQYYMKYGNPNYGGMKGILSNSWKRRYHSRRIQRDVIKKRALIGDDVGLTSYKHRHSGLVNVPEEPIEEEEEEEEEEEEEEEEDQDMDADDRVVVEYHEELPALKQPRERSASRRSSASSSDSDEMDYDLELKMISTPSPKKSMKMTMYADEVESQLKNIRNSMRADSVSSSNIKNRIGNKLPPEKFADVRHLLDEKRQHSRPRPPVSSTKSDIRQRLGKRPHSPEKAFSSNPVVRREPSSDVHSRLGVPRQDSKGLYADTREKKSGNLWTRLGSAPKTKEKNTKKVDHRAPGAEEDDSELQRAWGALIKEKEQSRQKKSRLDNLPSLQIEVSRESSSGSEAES
UniProt Q4G0T1: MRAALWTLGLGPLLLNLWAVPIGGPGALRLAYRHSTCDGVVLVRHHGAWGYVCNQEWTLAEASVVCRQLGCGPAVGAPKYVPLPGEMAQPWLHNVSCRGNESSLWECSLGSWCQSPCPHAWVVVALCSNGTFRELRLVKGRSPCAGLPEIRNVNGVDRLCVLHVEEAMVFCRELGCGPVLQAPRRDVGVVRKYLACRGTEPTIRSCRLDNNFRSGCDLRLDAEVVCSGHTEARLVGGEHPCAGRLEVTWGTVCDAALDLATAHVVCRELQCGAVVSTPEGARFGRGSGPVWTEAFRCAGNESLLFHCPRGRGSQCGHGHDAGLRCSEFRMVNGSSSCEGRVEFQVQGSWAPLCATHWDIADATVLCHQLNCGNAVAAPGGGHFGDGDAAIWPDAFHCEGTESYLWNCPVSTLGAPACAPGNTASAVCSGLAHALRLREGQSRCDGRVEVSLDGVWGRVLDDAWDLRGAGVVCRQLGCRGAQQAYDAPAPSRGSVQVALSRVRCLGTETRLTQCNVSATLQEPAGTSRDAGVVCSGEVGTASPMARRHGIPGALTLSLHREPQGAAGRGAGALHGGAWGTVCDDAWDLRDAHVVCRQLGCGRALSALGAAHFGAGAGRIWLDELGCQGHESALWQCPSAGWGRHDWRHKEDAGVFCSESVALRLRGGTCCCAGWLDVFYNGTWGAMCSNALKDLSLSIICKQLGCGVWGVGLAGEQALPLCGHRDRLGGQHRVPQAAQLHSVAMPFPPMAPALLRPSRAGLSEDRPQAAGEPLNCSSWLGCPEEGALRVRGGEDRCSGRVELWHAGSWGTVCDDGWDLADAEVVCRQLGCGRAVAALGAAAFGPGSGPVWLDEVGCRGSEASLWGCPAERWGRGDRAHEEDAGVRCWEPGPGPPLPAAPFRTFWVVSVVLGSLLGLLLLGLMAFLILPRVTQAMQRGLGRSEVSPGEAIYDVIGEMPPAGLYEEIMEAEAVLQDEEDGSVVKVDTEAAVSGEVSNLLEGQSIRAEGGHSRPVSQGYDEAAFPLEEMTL
UniProt Q56P03: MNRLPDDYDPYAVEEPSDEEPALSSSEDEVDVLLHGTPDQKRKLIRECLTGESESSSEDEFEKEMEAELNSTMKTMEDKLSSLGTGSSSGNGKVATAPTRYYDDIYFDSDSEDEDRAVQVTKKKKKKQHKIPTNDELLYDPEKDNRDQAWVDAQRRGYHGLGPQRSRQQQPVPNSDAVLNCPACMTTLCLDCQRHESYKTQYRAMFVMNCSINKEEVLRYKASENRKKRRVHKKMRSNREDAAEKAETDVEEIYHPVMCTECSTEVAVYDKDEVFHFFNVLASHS

Compound: CN[C@@H]1C[C@H]2O[C@@](C)([C@@H]1OC)n1c3ccccc3c3c4c(c5c6ccccc6n2c5c31)C(=O)NC4 [staurosporine]
Experiment: log2 fold change of tryptic peptide abundance, ligand vs vehicle (limited proteolysis) (log2 ratio); higher = more trypsin-susceptible (destabilized)
Details: ligand concentration: 20 uM; sample: K562 cleared lysate; digestion: 4 min, 22 C (HT-PELSA RT4min, Orbitrap Astral)

| Target | log2 fold change |
| --- | --- |
| ZC3H13 (peptide sequence: QAYTSAPMVDNELLR, peptide start residue: 1617) (UniProt Q5T200) | -0.911 |
| UniProt Q53EQ6 (peptide sequence: VLSDLTHLAALAYK, peptide start residue: 509) | 0.403 |
| GPATCH4 (peptide sequence: EFTNHWWNELFNK, peptide start residue: 59) (UniProt Q5T3I0) | -0.396 |
| PRPF38B (peptide sequence: EGAEEIDR, peptide start residue: 246) (UniProt Q5VTL8) | -0.116 |
| CBWD5 (peptide sequence: HLTEEKPDGLINEATR, peptide start residue: 177) (UniProt Q5RIA9) | 0.00043 |
| FILIP1L (peptide sequence: LIEETKR, peptide start residue: 539) (UniProt Q4L180) | 0.717 |
| UniProt Q5FWF5 (peptide sequence: NFSQCLESK, peptide start residue: 511) | 0.354 |
| AARS2 (peptide sequence: LVPSASVRPR, peptide start residue: 58) (UniProt Q5JTZ9) | 0.339 |
| UniProt Q58FG0 (peptide sequence: HIYYITGETK, peptide start residue: 490) | 0.134 |
| ARID4B (peptide sequence: KNLLESIPTHSDQEK, peptide start residue: 473) (UniProt Q4LE39) | 0.267 |
| SDHAF4 (peptide sequence: FDAPEDSHLEK, peptide start residue: 58) (UniProt Q5VUM1) | 0.213 |
| HP1BP3 (peptide sequence: TCSTTALK, peptide start residue: 358) (UniProt Q5SSJ5) | 0.29 |
| FKBP15 (peptide sequence: DDVTSSTGPHK, peptide start residue: 1126) (UniProt Q5T1M5) | 0.457 |
| DDI2 (peptide sequence: SLASYGLKDGDVVILR, peptide start residue: 60) (UniProt Q5TDH0) | 0.334 |
| PSMG4 (peptide sequence: NLAVAMCSR, peptide start residue: 49) (UniProt Q5JS54) | -0.222 |
| ZNF618 (peptide sequence: WKPQAQR, peptide start residue: 438) (UniProt Q5T7W0) | 0.324 |
| HECTD3 (peptide sequence: LEGTDPEVLYRR, peptide start residue: 396) (UniProt Q5T447) | -0.31 |
| UniProt Q5TA45 (peptide sequence: LFIPWTNQK, peptide start residue: 281) | 0.114 |
| UniProt Q5VY09 (peptide sequence: NLLVSLVLR, peptide start residue: 33) | 0.094 |

| Target | log2 fold change |
| --- | --- |
| CDKAL1 (peptide sequence: VVEVVEETIK, peptide start residue: 163) (UniProt Q5VV42) | 0.249 |
| RARS2 (peptide sequence: KHFQQVFQMLK, peptide start residue: 352) (UniProt Q5T160) | 0.199 |
| CT47A1 (peptide sequence: LMVGPHAAAR, peptide start residue: 150) (UniProt Q5JQC4) | 0.0882 |
| UniProt Q53F19 (peptide sequence: NVALDRDMMK, peptide start residue: 108) | 0.339 |
| NA (peptide sequence: GAQQAYDAPAPSR, peptide start residue: 479) (UniProt Q4G0T1) | 0.67 |
| UniProt Q5T1R4 (peptide sequence: SNEEYVYVR, peptide start residue: 2073) | -0.0402 |
| HSP90AB2P (peptide sequence: LDSGKELK, peptide start residue: 65) (UniProt Q58FF8) | 0.514 |
| EAPP (peptide sequence: DQAWVDAQR, peptide start residue: 147) (UniProt Q56P03) | 0.145 |
| UniProt Q4ADV7 (peptide sequence: TLSMPSGPSGK, peptide start residue: 1035) | -0.177 |
| PDCD4 (peptide sequence: ATVLLSMSK, peptide start residue: 298) (UniProt Q53EL6) | -0.0916 |
| ESCO2 (peptide sequence: VIYKPIVEK, peptide start residue: 170) (UniProt Q56NI9) | 0.586 |
| MINDY4 (peptide sequence: TSLELITR, peptide start residue: 69) (UniProt Q4G0A6) | 0.263 |
| MRPL51 (peptide sequence: AMFGVYDNIGILGNFEKHPK, peptide start residue: 52) (UniProt Q4U2R6) | -0.636 |
| C5orf22 (peptide sequence: ILQELYQFK, peptide start residue: 274) (UniProt Q49AR2) | -0.0871 |
| PARP10 (peptide sequence: WLEEEAALQLALHR, peptide start residue: 649) (UniProt Q53GL7) | 0.127 |
| RNF187 (peptide sequence: SLLQAVSELEK, peptide start residue: 213) (UniProt Q5TA31) | -0.351 |
| PPRC1 (peptide sequence: SKFDSLDFDTLLK, peptide start residue: 1644) (UniProt Q5VV67) | -0.568 |
| RNF220 (peptide sequence: FEEYEWCGQKR, peptide start residue: 353) (UniProt Q5VTB9) | -0.192 |

Two entries picked at random from those above:

| Target | log2 fold change |
| --- | --- |
| MRPL51 (peptide sequence: AMFGVYDNIGILGNFEKHPK, peptide start residue: 52) (UniProt Q4U2R6) | -0.636 |
| C5orf22 (peptide sequence: ILQELYQFK, peptide start residue: 274) (UniProt Q49AR2) | -0.0871 |
